Measurements published in ChEMBL document CHEMBL6109134, “Discovery of AMG 193, an MTA-Cooperative PRMT5 Inhibitor for the Treatment of MTAP-Deleted Cancers” (J Med Chem, 2025).
Converted amounts (≈) assume the structure as drawn.

The chains behind the UniProt entries cited, without tags or fusion partners.
UniProt P11712, whole entry: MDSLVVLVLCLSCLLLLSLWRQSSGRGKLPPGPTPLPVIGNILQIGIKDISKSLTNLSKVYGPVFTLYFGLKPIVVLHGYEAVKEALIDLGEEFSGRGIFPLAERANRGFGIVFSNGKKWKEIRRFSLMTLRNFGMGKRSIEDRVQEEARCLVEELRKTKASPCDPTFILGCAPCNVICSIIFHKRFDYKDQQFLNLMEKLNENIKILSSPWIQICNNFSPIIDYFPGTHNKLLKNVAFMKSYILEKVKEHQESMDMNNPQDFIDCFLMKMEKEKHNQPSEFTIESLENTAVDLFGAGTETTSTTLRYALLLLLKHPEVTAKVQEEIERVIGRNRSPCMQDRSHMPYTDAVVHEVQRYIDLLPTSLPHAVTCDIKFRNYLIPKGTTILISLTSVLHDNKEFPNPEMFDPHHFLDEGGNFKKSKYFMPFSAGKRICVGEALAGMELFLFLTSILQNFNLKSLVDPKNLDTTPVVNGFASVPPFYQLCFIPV
UniProt P08684, whole entry: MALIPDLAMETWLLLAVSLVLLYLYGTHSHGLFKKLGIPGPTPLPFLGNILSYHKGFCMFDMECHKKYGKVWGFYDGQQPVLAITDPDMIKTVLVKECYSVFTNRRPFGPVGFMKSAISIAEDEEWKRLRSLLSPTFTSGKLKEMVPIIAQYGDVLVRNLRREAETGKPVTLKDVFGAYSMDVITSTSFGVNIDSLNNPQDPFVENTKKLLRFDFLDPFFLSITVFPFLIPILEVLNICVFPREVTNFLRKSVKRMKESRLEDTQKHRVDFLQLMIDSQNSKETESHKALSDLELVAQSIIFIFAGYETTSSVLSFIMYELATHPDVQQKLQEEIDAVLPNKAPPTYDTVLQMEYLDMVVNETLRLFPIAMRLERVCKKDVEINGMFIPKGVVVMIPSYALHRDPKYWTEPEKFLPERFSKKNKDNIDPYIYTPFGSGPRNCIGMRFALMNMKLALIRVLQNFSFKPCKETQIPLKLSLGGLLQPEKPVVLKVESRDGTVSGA

Legend:
Cytochrome P450 2C9 = Cytochrome P450 2C9 (Homo sapiens, UniProt P11712); assay: Inhibition of CYP2C9 (unknown origin)
Cytochrome P450 3A4 [1] = molecular target: T1, Cytochrome P450 3A4 (Homo sapiens, UniProt P08684)
[2] = Solubility of compound in Hcl buffer at pH 2.0
[3] = Solubility of compound in PBS buffer at pH 7.4
Cytochrome P450 3A4 [4] = molecular target: T1, Cytochrome P450 3A4; remark: listed apart in the source
Cytochrome P450 3A4 [5] = molecular target: T1, Cytochrome P450 3A4; assay: Inhibition of CYP3A4 (unknown origin)
[6] = molecular target: T2, Nuclear receptor subfamily 1 group I member 2 (Homo sapiens, UniProt O75469); assay: Activation of human PXR in human HepG2 cells co-transfected with CYP3A4-luciferase at 10 uM incubated for 1 day relative to control; details: hepg2, 24 h
T2 sequence (O75469 whole entry): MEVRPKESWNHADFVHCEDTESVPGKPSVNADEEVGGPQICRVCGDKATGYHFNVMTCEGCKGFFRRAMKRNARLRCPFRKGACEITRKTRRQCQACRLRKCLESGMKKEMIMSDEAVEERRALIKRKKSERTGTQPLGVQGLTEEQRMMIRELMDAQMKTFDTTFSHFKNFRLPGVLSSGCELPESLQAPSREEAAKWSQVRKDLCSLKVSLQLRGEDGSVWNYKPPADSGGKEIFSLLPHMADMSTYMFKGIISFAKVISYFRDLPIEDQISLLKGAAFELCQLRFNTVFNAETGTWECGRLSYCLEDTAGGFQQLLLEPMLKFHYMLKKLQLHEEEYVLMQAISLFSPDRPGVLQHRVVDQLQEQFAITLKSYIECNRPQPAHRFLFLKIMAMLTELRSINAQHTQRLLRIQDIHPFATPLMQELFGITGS

[7] = Solubility of compound in SIF at pH 6.8; details: simulated gi fluid
[8] = dog, MDCK-MDR1

## Cc1cc2cc(C(=O)N(Cc3ccc(C(F)(F)F)cn3)[C@H](C)c3ncccn3)ccc2nc1N
Cytochrome P450 2C9
  IC50: 21 µM
Cytochrome P450 3A4 [1]
  IC50: 5.4 µM
[2]
  solubility: > 500 µM
[3]
  solubility: 343 µM (≈ 160 µg/mL)
Cytochrome P450 3A4 [4]
  IC50: > 50 µM
Cytochrome P450 3A4 [5]
  IC50: 20 µM
[6]
  Activity: 24%
[7]
  solubility: > 363 µM
[8]
  permeability: 19 10^-6 cm/s
